PubChem BioAssay AID504804 – Drosophila RNAi Screening Center | 2011
The deposit covers about 19,000 reagents; this is a random part of those with a known target gene and a result. In the full data, 47 (0.25%) are marked active. 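Signals are raw, not normalised; exact z-scores behind calls not deposited; actives needed confirmation, so some wells reaching 2 SD are inactive.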 Unmarked entries are inactive.

Assay: 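Knock-downs shielding fly cells from apoptosis caused by DNA damage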 (primary screen)
System: Drosophila Kc cells
Reagents: long dsRNA against Drosophila genes, 0.5 µg dsRNA per well
Time to read-out: 96 h (48 h knock-down, then 48 h drug)
Treatment: doxorubicin 5 µg/ml for 48 h, added 48 h after dsRNA
Read-out: 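Luminescent ATP counts per replicate, not normalised, reflecting viable cells after 48 h dsRNA knock-down followed by 48 h of 5 µg/ml doxorubicin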
Reading the numbers: raw ATP luminescence: higher = more viable cells, protection from doxorubicin
Call rule: 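Active when both duplicate wells lie at least 2 SD above the plate mean and protection is confirmed by rescreening and independent dsRNAs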

| Gene | DRSC id | SD above plate mean | raw ATP luminescence, replicate 1 | raw ATP luminescence, replicate 2 |
| --- | --- | --- | --- | --- |
| Acph-1 | DRSC14103 | – | 42870 | 42930 |
| CG10026 | DRSC02010 | – | 60657 | 54790 |
| CG3635 | DRSC03729 | – | 65020 | 85000 |
| Phae1 | DRSC02554 | – | 55683 | 76350 |
| cv-c | DRSC14969 | – | 70260 | 61400 |
| cv-c | DRSC14970 | – | 70650 | 69600 |
| cv-c | DRSC14971 | – | 32420 | 28660 |
| cv-c | DRSC14972 | – | 81270 | 59830 |
| cv-c | DRSC14973 | – | 35800 | 29450 |
| cv-c | DRSC16428 | – | 62920 | 64570 |
| Cyp4ad1 | DRSC07369 | – | 88500 | 71450 |
| CG2577 | DRSC19863 | – | 3.39e5 | 3.46e5 |
| CG14207 | DRSC19563 | – | 3.26e5 | 2.80e5 |
| CG31675 | DRSC01825 | – | 74087 | 81167 |
| p130CAS | DRSC07862 | – | 1.48e5 | 30113 |
| p130CAS | DRSC08257 | – | 52297 | 48817 |
| CG8087 | DRSC16375 | – | 76170 | 60930 |
| CG11537 | DRSC08200 | – | 34650 | 50790 |
| Tnks | DRSC14154 | – | 60260 | 62630 |
| gcm | DRSC03536 | – | 36373 | 79463 |

Looked up above:
CG10026 [DRSC02010], raw ATP luminescence, replicate 2 = 54790
Value of Acph-1 [DRSC14103] in “raw ATP luminescence, replicate 1”: 42870
CG8087 [DRSC16375], raw ATP luminescence, replicate 2: 60930
Entry for p130CAS [DRSC07862] in “raw ATP luminescence, replicate 1”: 1.48e5

Additional reagents:
| Gene | DRSC id | SD above plate mean | raw ATP luminescence, replicate 1 | raw ATP luminescence, replicate 2 |
| --- | --- | --- | --- | --- |
| mRpS23 | DRSC01348 | – | 2.26e5 | 2.34e5 |
| Dys | DRSC13360 | – | 2.20e5 | 2.54e5 |
| Dys | DRSC13364 | – | 1.83e5 | 2.00e5 |
| Dys | DRSC15260 | at least 2 SD above plate mean | 87510 | 98240 |
| Dys | DRSC16218 | – | 75510 | 88830 |
| Dys | DRSC16219 | – | 62070 | 88040 |
| Dys | DRSC16220 | – | 53070 | 85280 |
| Dys | DRSC16935 | – | 64370 | 64780 |
| boca | DRSC06408 | – | 52207 | 76700 |
| Polr3E | DRSC11880 | – | 76213 | 60473 |
| Ndf | DRSC02775 | – | 99487 | 58787 |
| CG1354 | DRSC17902 | – | 2.92e5 | 3.25e5 |
| CG32986 | DRSC02509 | – | 44760 | 55150 |
| Hsc70-4 | DRSC16711 | – | 77810 | 69000 |
